{
  "source": "patent US4017487A",
  "about": "“7β-(D-5-amino-5-carboxyvaleramido )-7-methoxy-3-substituted-3-cephem-4-carboxylic acid antibiotics” (priority 1974, dated 1977)",
  "test_system": "Vibrio percolans MB-1272",
  "assay": "Disc-plate assay using Vibrio percolans",
  "details": "50 μg/ml",
  "note": "The name of at least one read-out is uncertain.",
  "data": [
    {"smiles": "CO[C@@]1(NC(=O)CCC[C@@H](N)C(=O)O)C(=O)N2C(C(=O)O)=C(C)CS[C@@H]21", "note": "[7β-(D-5-amino-5-carboxyvaleramido)-3-methyl-7-methoxy-3-cephem-4-carboxylic acid]", "values": [
      {"measurement": "Bioactivity remaining", "result": "< 2 % of initial activity"}
    ]}
  ]
}
